This passage reports survivor count results from PubChem BioAssay AID186 (DTP/NCI, 2004).

Values are animals surviving of animals treated; these mice carried no tumour. Survivors were counted at the toxicity check, usually on the fifth day, unless a day is given; later deaths do not show. Schedules are NCI's codes, taken here to give the interval after Q, in days (D) or hours (H), and the number of doses after X. Some entries were tested several times; their values stand side by side, smallest first.

The subject of this experiment is B6D2F1 mice, nontumored toxicity test, survival. Put plainly: NCI In Vivo Anticancer Drug Screen. Data for tumor model Nontumored Animals (Toxicity Test) in B6D2F1 (BDF1) mice.

Consider `CO[C@H](C(=O)[C@@H](O)[C@@H](C)O)[C@@H]1Cc2cc3cc(OC4CC(OC5CC(O)C(O)C(C)O5)C(O)C(C)O4)c(C)c(O)c3c(O)c2C(=O)[C@H]1OC1CC(OC2CC(OC3CC(C)(O)C(O)C(C)O3)C(O)C(C)O2)C(O)C(C)O1` (stereo partly specified), for which the survivor count (dose: 0.01 mg/kg/injection, schedule: Q03HX024 (ip), vehicle: water) was 6 of 6; the survivor count (dose: 0.02 mg/kg/injection, schedule: Q03HX016 (ip), vehicle: water) is 5 of 6; the survivor count (dose: 0.02 mg/kg/injection, schedule: Q03HX024 (ip), vehicle: water) was 6 of 6; the survivor count (dose: 0.04 mg/kg/injection, schedule: Q03HX008 (ip), vehicle: water) is listed as 6 of 6; the survivor count (dose: 0.04 mg/kg/injection, schedule: Q03HX016 (ip), vehicle: water) is recorded as 6 of 6; the survivor count (dose: 0.04 mg/kg/injection, schedule: Q03HX024 (ip), vehicle: water) is on record as 6 of 6. For the same compound, the survivor count is on record as 6 of 6 (dose: 0.09 mg/kg/injection, schedule: Q01DX009 (ip), vehicle: water); 5 of 6 (dose: 0.09 mg/kg/injection, schedule: Q03HX008 (ip), vehicle: water); 6 of 6 (dose: 0.09 mg/kg/injection, schedule: Q03HX016 (ip), vehicle: water); 6 of 6 (dose: 0.09 mg/kg/injection, schedule: Q03HX024 (ip), vehicle: water); 5 of 6 (dose: 0.09 mg/kg/injection, schedule: Q04DX003 (ip), vehicle: water); 6 of 6 (dose: 0.19 mg/kg/injection, schedule: Q01DX009 (ip), vehicle: water). In addition, the survivor count runs as follows: (dose: 0.19 mg/kg/injection, schedule: Q03HX008 (ip), vehicle: water) 3 of 6; (dose: 0.19 mg/kg/injection, schedule: Q03HX016 (ip), vehicle: water) 6 of 6; (dose: 0.19 mg/kg/injection, schedule: Q03HX024 (ip), vehicle: water) 1 of 6; (dose: 0.19 mg/kg/injection, schedule: Q04DX003 (ip), vehicle: water) 6 of 6; (dose: 0.19 mg/kg/injection, schedule: Q08DX002 (ip), vehicle: water) 6 of 6; (dose: 0.37 mg/kg/injection, schedule: Q01DX001 (ip), vehicle: water) 6 of 6. Further, the survivor count runs as follows: (dose: 0.37 mg/kg/injection, schedule: Q01DX009 (ip), vehicle: water) 6 of 6; (dose: 0.37 mg/kg/injection, schedule: Q03HX008 (ip), vehicle: water) 0 of 6; (dose: 0.37 mg/kg/injection, schedule: Q03HX016 (ip), vehicle: water) 0 of 6; (dose: 0.37 mg/kg/injection, schedule: Q04DX003 (ip), vehicle: water) 6 of 6; (dose: 0.37 mg/kg/injection, schedule: Q08DX002 (ip), vehicle: water) 6 of 6; (dose: 0.75 mg/kg/injection, schedule: Q01DX001 (ip), vehicle: water) 6 of 6. For the same compound, the survivor count is, setting by setting: (dose: 0.75 mg/kg/injection, schedule: Q01DX009 (ip), vehicle: water) 5 of 6; (dose: 0.75 mg/kg/injection, schedule: Q04DX003 (ip), vehicle: water) 5 of 6; (dose: 0.75 mg/kg/injection, schedule: Q08DX002 (ip), vehicle: water) 6 of 6; (dose: 1.5 mg/kg/injection, schedule: Q01DX001 (ip), vehicle: water) 6 of 6; (dose: 1.5 mg/kg/injection, schedule: Q01DX009 (ip), vehicle: water) 6 of 6; (dose: 1.5 mg/kg/injection, schedule: Q04DX003 (ip), vehicle: water) 6 of 6. Also, the survivor count is, setting by setting: (dose: 1.5 mg/kg/injection, schedule: Q08DX002 (ip), vehicle: water) 5 of 6; (dose: 3.0 mg/kg/injection, schedule: Q01DX001 (ip), vehicle: water) 2 of 6; (dose: 3.0 mg/kg/injection, schedule: Q08DX002 (ip), vehicle: water) 2 of 6.

For `CN(N=O)C(=O)N[C@@H](C=O)[C@@H](O)[C@H](O)[C@H](O)CO`, the survivor count runs as follows: (dose: 37.5 mg/kg/injection, schedule: Q04DX003 (ip), vehicle: saline) 4 of 4; (dose: 75.0 mg/kg/injection, schedule: Q04DX003 (ip), vehicle: saline) 4 of 4; (dose: 150.0 mg/kg/injection, schedule: Q04DX003 (ip), vehicle: saline) 4 of 4; (dose: 250.0 mg/kg/injection, schedule: Q01DX001 (ip), vehicle: citric acid) 10 of 10; (dose: 300.0 mg/kg/injection, schedule: Q01DX001 (ip), vehicle: citric acid) 10 of 10; (dose: 300.0 mg/kg/injection, schedule: Q04DX003 (ip), vehicle: saline) 4 of 4. Further, the survivor count is, setting by setting: (dose: 350.0 mg/kg/injection, schedule: Q01DX001 (ip), vehicle: citric acid) 10 of 10 and 8 of 8; (dose: 400.0 mg/kg/injection, schedule: Q01DX001 (ip), vehicle: citric acid) 8 of 10 and 9 of 10.
